Measurements as given in US12194080B2, “Methods for identification, assessment, prevention, and treatment of metabolic disorders using PM20D1 and N-lipidated amino acids” (Dana-Farber Cancer Institute, Inc., priority 2015, dated 2025).

Test: Targeted MRM quantitation of N-acyl amino acids in plasma of AAV-injected mice
Type: in vivo, mouse
Details: for absolute quantitation in plasma, AAV-GFP mice / absolute quantitation in plasma, AAV-PM20D1 mice / Plasma levels: HFD; for absolute quantitation in plasma, AAV-GFP mice / absolute quantitation in plasma, AAV-PM20D1 mice: thermoneutrality, 47 days post-injection; for Plasma levels: endogenous level in AAV-GFP mice, room temperature, 54 days post-injection, n=4; for change of plasma level by PM20D1 (AAV-PM20D1 versus AAV-GFP): targeted MRM

CCCCC/C=C\C/C=C\CCCCCCCC(=O)N[C@@H](Cc1ccccc1)C(=O)O [N-linoleoyl phenylalanine]
absolute quantitation in plasma, AAV-GFP mice: 2 nM
absolute quantitation in plasma, AAV-PM20D1 mice: 7 nM
Plasma levels: 2.4 ± 0.4 nM

CCCCCCCCCCCCCCCC(=O)N[C@@H](Cc1ccccc1)C(=O)O [N-palmitoyl phenylalanine, Palmitoyl-L-phenylalanine]
absolute quantitation in plasma, AAV-GFP mice: 6 nM
absolute quantitation in plasma, AAV-PM20D1 mice: 15 nM
Plasma levels: 6.0 ± 1.5 nM

CCCCCCCC/C=C\CCCCCCCC(=O)N[C@@H](Cc1ccccc1)C(=O)O [C18:1-Phe, Oleoyl-L-phenylalanine]
absolute quantitation in plasma, AAV-GFP mice: 4 nM
absolute quantitation in plasma, AAV-PM20D1 mice: 10 nM
Plasma levels: 3.8 ± 0.4 nM
change of plasma level by PM20D1 (AAV-PM20D1 versus AAV-GFP): increased

CCCCCCCC/C=C\CCCCCCCC(=O)N[C@H](C(=O)O)C(C)C [C18:1-Val]
Plasma levels: 2.9 ± 0.6 nM
change of plasma level by PM20D1 (AAV-PM20D1 versus AAV-GFP): not

CCCCC/C=C\C/C=C\C/C=C\C/C=C\CCCC(=O)N[C@@H](Cc1ccccc1)C(=O)O [C20:4-Phe, N-arachidonoyl phenylalanine]
Plasma levels: 0.6 ± 0.1 nM

CCCCCCCC/C=C\CCCCCCCC(=O)N[C@@H](CC(C)C)C(=O)O [C18:1-Leu, Oleoyl-L-leucine]
absolute quantitation in plasma, AAV-GFP mice: 6 nM
absolute quantitation in plasma, AAV-PM20D1 mice: 29 nM

CCCCCCCC/C=C\CCCCCCCC(=O)N[C@@H](C)C(=O)O [C18:1-Ala]
Plasma levels: 1.9 ± 0.2 nM
change of plasma level by PM20D1 (AAV-PM20D1 versus AAV-GFP): not

CCCCCCCCCCCCCCCCCCCC(=O)N[C@@H](Cc1ccccc1)C(=O)O [N-arachidoyl phenylalanine, Icosanoyl-L-phenylalanine]
Plasma levels: 0.3 ± 0.0 nM

CCCCCCCC/C=C\CCCCCCCC(=O)NCC(=O)O [C18:1-Gly]
Plasma levels: 65.0 ± 14.2 nM
change of plasma level by PM20D1 (AAV-PM20D1 versus AAV-GFP): not

CCCCCCCCCCCCCC(=O)N[C@@H](Cc1ccccc1)C(=O)O [C14-Phe]
Plasma levels: 0.4 ± 0.1 nM
